Results published in patent EP0666847B1 (priority 1993, dated 1995).
Structures can show the parent of a compound that is named as a salt. For at least one compound, name, drawing or mass did not settle the structure.

By UniProt entry, the sequences of proteins in these tests, tags left out.
UniProt P28222, whole entry: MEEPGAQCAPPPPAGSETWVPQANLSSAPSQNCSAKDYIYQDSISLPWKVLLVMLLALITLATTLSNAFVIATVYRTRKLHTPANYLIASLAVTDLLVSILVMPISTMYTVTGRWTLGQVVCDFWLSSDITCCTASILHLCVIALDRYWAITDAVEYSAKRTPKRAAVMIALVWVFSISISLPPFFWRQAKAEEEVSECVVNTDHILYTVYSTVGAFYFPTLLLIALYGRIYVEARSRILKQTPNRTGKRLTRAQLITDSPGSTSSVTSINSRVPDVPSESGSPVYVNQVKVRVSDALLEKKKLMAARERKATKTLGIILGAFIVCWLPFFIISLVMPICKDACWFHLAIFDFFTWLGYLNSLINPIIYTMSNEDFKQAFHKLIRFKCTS

Target: T1, 5-HT1Dβ receptor (Homo sapiens, UniProt P28222)
T1 construct: expressed in transfected cells
Test: Inhibition of forskolin-stimulated adenylate cyclase (cAMP radioimmunoassay) in 5-HT1Dβ-presenting CHO cells
Format: cell-based
Conditions: 10^-12 to 10^-6M, forskolin-exposed CHO cells, Figure 1

## CCCCCCCCCOc1ccc2[nH]cc(CCN)c2c1 [Example 4, 3-(2-aminoethyl)-5-nonyloxyindole oxalate]
  agonist activity at the 5-HT1Dβ receptor: potent, full agonist
